Measurements published in PubChem BioAssay AID624297 (National Center for Advancing Translational Sciences (NCATS), 2012).
Out of some 340,000 compounds screened, about 6,200 (1.8%) were called active. Inconclusive means that the source gave no clear call. Such entries were picked first, then a sample of the others. The call rests on the fitted dose curve; in most records, active means well fitted activation curve with a large enough effect; inconclusive means small, poorly fitted or top-dose-only effect; inactive means no such curve, though single readings can be large or run the other way. Potencies of inconclusive entries are doubtful fits and often do not repeat.
Potency means the concentration at half of the fitted maximal effect.

Test: A quantitative high throughput screen for small molecules that induce DNA re-replication in SW480 colon adenocarcinoma cells. Further: nearly all actives have a fitted effect of over 55% in size. On re-replication activation: % of control where 0% means no effect.
Details: Hoechst DNA content imaging, 48 h; re-replication activation: at 46.1 µM (top of the series) unless noted
Procedure, shortened: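 Treated cells incubate 48 hr (37 C, 5% CO2), are stained 40 min with Hoechst, and nuclear fluorescence is enumerated; a rise in nuclei with high DNA signal marks re-replication.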
With `CN(C)N=Nc1ccc(S(=O)(=O)NC(Cc2ccccc2)C(=O)O)cc1` (configuration not stated) the Potency was inconclusive: 0.164 µM [activator, single point].
In the case of `O=C(CCn1c(=S)oc2ccccc21)Nc1cc([N+](=O)[O-])ccc1F`, the re-replication activation was inconclusive: 30.5% [activator].
In the case of `CCSc1ccccc1C(=O)Nc1nc2ccccc2c(=O)[nH]1`, the Potency was inconclusive: 25.9 µM [activator, single point].
With `COc1cccc(-n2nnc3c(=O)n(Cc4ccc(C)cc4)cnc32)c1` the “re-replication activation” value was inactive: -0.166%.
In the case of `COc1ccc(OC)c(NC(=O)COC(=O)CN(C)S(=O)(=O)c2ccc(C)cc2)c1`, the Potency was inconclusive: 29.1 µM [activator, single point].
In the case of `O=C(Nc1ccc2c(c1)OCCO2)Nc1ccc2c(c1)OCO2`, the “re-replication activation” value was inactive: 1.03%.
For `COc1cc(Cl)c(C)cc1NCC(=O)Nc1cccc(S(=O)(=O)N2CCCC2)c1`, the “re-replication activation” value was inactive: 13.7%.
With `CO/N=C(/CS(=O)(=O)Cc1ccccc1Cl)c1ccc(Cl)cc1Cl` the “re-replication activation” value was inactive: -1.75%.
For `COc1ccc(Cn2nnnc2C(c2ccccn2)N2CCN(c3cc(Cl)ccc3C)CC2)cc1` (configuration not stated), the Potency was inconclusive: 16.4 µM [activator, single point].
In the case of `CCC(C)C(=O)Nc1nccs1` (configuration not stated), the Potency was active: 1.46 µM.
With `O=C(NC(=S)Nc1ccccc1Br)C1CCCC1` the “re-replication activation” value was inactive: 0.116%.
In the case of `N#Cc1c(N)nc2c(c1-c1ccncc1)CCCCC2`, the “re-replication activation” value was inactive: -8.68%.
With `O=C(NNc1ncnc2c1cnn2-c1cccc(Cl)c1)c1ccco1` the Potency was active: 20.6 µM.
In the case of `O=C(CSc1ccc(-c2cccs2)nn1)Nc1ccccc1`, the “re-replication activation” value was inactive: -1.91%.
In the case of `CCOC(=O)c1c(-c2ccc(C)o2)csc1NC(=O)CN1CCC(C(N)=O)CC1`, the Potency was inconclusive: 3.26 µM [activator, full curve, poor fit].
With `COCCn1c(=N)c(S(=O)(=O)c2ccc(F)cc2)cc2c(=O)n3ccccc3nc21` the Potency was active: 20.6 µM.
For `CCC(=O)Nc1nc(C)c(-c2csc(Nc3cccc(O)c3)n2)s1`, the Potency was inconclusive: 5.17 µM [activator, full curve, poor fit].
For `COC(=O)c1cnc(Oc2ccc(NC(=O)NC(=O)c3c(F)cccc3Cl)cc2)cc1C(F)(F)F`, the Potency was inconclusive: 4.61 µM [activator, single point].
With `COc1ccccc1N1CCN(C(CNS(=O)(=O)c2ccc(C)cc2)c2cccnc2)CC1` (configuration not stated) the “re-replication activation” value was inactive: 9.33%.
With `O=C(CSc1ncccn1)Nc1cc(Cl)ccc1[N+](=O)[O-]` the Potency was inconclusive: 0.731 µM [activator, partial curve, poor fit].
With `CC1CCc2c(sc(NC(=O)CSc3nnc(-c4ccccc4)o3)c2C#N)C1` (configuration not stated) the “re-replication activation” value was inactive: -82.3%.
In the case of `Cc1nn(-c2ccccc2)c(C)c1NC(=O)COC(=O)c1ccccc1OC(F)F`, the Potency was inconclusive: 0.116 µM [activator, full curve, poor fit].
With `COc1ccc(NC(=S)Nc2cc(C)ccn2)c(OC)c1` the Potency was inconclusive: 29.1 µM [activator, single point].
In the case of `O=C(NC12CC3CC(CC(C3)C1)C2)N1CCN(c2ncccn2)CC1`, the Potency was inconclusive: 20.6 µM [activator, single point].
For `Cc1ccc(C)c(NC(=O)CN(C)S(=O)(=O)c2cccc3cccnc23)c1`, the “re-replication activation” value was inactive: -15.3%.
In the case of `O=C(O)CCCN1C(=O)/C(=C/c2cn(-c3ccccc3)nc2-c2cccs2)SC1=S`, the “re-replication activation” value was inactive: -49.2%.
For `Cc1ccsc1-c1nc(-c2ccccc2)c(-c2ccccc2)[nH]1`, the Potency was inconclusive: 29.1 µM [activator, single point].
For `CCOC(=O)C1CCCN(c2nc3ccccc3nc2C(C#N)C(=O)NCc2ccccc2)C1` (configuration not stated), the Potency was inconclusive: 9.2 µM [activator, partial curve].
For `CCCCCCCCCCCCCC[N+](C)(C)C`, the Potency was inconclusive: 11.9 µM [activator, single point].
In the case of `COc1ccc(CNC(=O)CCC(=O)Nc2cccnc2)cc1`, the Potency was inconclusive: 29.1 µM [activator, single point].
In the case of `O=[N+]([O-])c1ccc(O)c(C=Nc2ccc3nc(-c4ccccc4)[nH]c3c2)c1`, the “re-replication activation” value was inactive: -0.159%.
In the case of `COc1ccc(N=Cc2sc3ccccc3c2Cl)cc1`, the Potency was inconclusive: 0.0046 µM [activator, full curve, poor fit].
For `CCOC(=O)C1(CCOC)CCN(Cc2cccc(OCc3ccccc3)c2)CC1`, the Potency was inconclusive: 0.231 µM [activator, full curve, poor fit].
With `COCCCNC(=S)N/N=C/c1ccc(O)cc1` the “re-replication activation” value was inactive: 13.8%.
With `Cc1cc(C)n(-c2nc(N(C)C)nc(N3CCOCC3)n2)n1` the Potency was inconclusive: 16.4 µM [activator, partial curve, poor fit].
With `CC(/C=C/c1ccco1)=N\NC(=O)CNc1ccc2ccccc2c1` the “re-replication activation” value was inactive: 4.82%.
For `CCn1cc(C(=O)O)c(=O)c2cnc(N3CCN(C(=S)Nc4ccccc4C(F)(F)F)CC3)nc21`, the “re-replication activation” value was inactive: 8.12%.
With `O=S(=O)(c1ccc(Br)s1)N1CCNCC1` the Potency was inconclusive: 2.31 µM [activator, partial curve, poor fit].
In the case of `C/C=C/C(=O)Nc1cccc(C2=NOC3(C2)C[C@@H](C(N)=O)N(C(=O)C(c2ccccc2)c2ccccc2)C3)c1` (some centres not stated), the Potency was inconclusive: 29.1 µM [activator, single point].
With `CCN(CC)c1ccc(NC(=O)OC)cc1` the “re-replication activation” value was inactive: -1.76%.
In the case of `Cc1ccc(S(=O)(=O)n2cccc2CO)cc1`, the Potency was inconclusive: 16.4 µM [activator, partial curve, poor fit].
With `Cc1nc(Nc2ccncc2)c2oc3ccccc3c2n1` the Potency was inconclusive: 23.1 µM [activator, single point].
In the case of `Cc1ccc(S(=O)(=O)N2CCC(C(=O)Nc3ccc(S(=O)(=O)N4CCCC4)cc3)CC2)cc1`, the Potency was inconclusive: 18.4 µM [activator, partial curve, poor fit].
In the case of `CCOC(=O)N1CCN(C(=O)c2ccccc2CCc2ccccc2)CC1`, the “re-replication activation” value was inactive: -1.13%.
With `Cc1nc2ccccn2c1-c1csc(Nc2cccc(O)c2)n1` the Potency was inconclusive: 2.31 µM [activator, full curve, poor fit].
For `COc1ccc(/C=N/n2cnc3c([nH]c4ccc(Br)cc43)c2=O)cc1CN1CCOCC1`, the Potency was inconclusive: 29.1 µM [activator, single point].
For `CCOc1ccc(CN2CCN(CC3CC3)CC2CCO)cc1` (configuration not stated), the Potency was inconclusive: 23.1 µM [activator, partial curve, poor fit].
In the case of `Cc1ccc(SCc2cc(=O)[nH]c(Nc3nc(C)c4ccccc4n3)n2)cc1`, the “re-replication activation” value was inactive: -5.27%.
With `CCOC(=O)C1CCN(CCC(=O)Nc2cccc(C)c2)CC1` the Potency was inconclusive: 23.1 µM [activator, partial curve, poor fit].
In the case of `CC1CN(S(=O)(=O)c2ccc(CN3C(=O)c4cccnc4C3=O)s2)c2ccccc2O1` (configuration not stated), the Potency was inconclusive: 2.91 µM [activator, single point].
For `Cc1cccc(NC2=Nc3ccccc3N3C2=Nc2c(c(C)nn2-c2ccccc2)C3c2ccc(O)c(O)c2)c1` (configuration not stated), the Potency was active: 7.31 µM.
For `COc1cc(/C=C2\OC(=O)c3c(OC)cccc32)ccc1O`, the Potency was inconclusive: 29.1 µM [activator, partial curve, poor fit].
With `CNC(=S)NNC(=O)c1cccc(C(F)(F)F)c1` the “re-replication activation” value was inactive: -6.54%.
With `COC(=O)c1c(-c2ccc(OC)cc2)oc2ccc(-c3ccc(OC)nc3)cc12` the Potency was inconclusive: 1.3 µM [activator, full curve, poor fit].
With `Nc1ncnc2c1ncn2[C@@H]1O[C@H](CNCc2ccc(OCC(=O)Nc3nccs3)cc2)[C@@H](O)[C@H]1O` the “re-replication activation” value was inactive: -1.28%.
In the case of `COC(=O)[C@@H]1C[C@@]2(O)[C@H](O)[C@H](O)[C@H](O)C[C@H]2N1Cc1ccccc1OS(=O)(=O)c1ccc(C)cc1`, the Potency was inconclusive: 0.92 µM [activator, partial curve, poor fit].
In the case of `Cc1cccc(CN2C(=O)[C@@H]3Cc4c([nH]c5ccccc45)C(C)(C)N3C2=O)c1`, the “re-replication activation” value was inactive: 8.27%.
With `Cc1ccc2nc(NC(=O)C3CCN(S(=O)(=O)c4cccc5nsnc45)CC3)sc2c1` the “re-replication activation” value was inactive: -12.2%.
For `O=c1cc2c(nn1Cc1ccc(Cl)cc1Cl)-c1ccccc1CC2`, the “re-replication activation” value was inactive: 1.29%.
For `O=C(Nc1cccc(NC(=O)c2ccc([N+](=O)[O-])o2)c1)c1ccco1`, the Potency was active: 4.11 µM.
For `CC/C(=N\Nc1ccc([N+](=O)[O-])cc1)c1ccccc1`, the Potency was inconclusive: 18.4 µM [activator, single point].
In the case of `Cc1ccc(N/C(=N/S(=O)(=O)c2cccs2)c2ccccc2)c(C)c1`, the Potency was inconclusive: 18.4 µM [activator, single point].
With `COc1ccc(C(=O)NC2CCCN(Cc3ccccc3F)C2)c(OC)c1OC` (configuration not stated) the “re-replication activation” value was inactive: -0.17%.
With `COc1ccc(C(CCN(Cc2ccc(OC)c(OC)c2)C(=O)CCl)c2ccccc2)cc1` (configuration not stated) the Potency was active: 23.1 µM.
In the case of `CCOc1ccccc1N1CCN(C(=O)c2ccc3nc(N)sc3c2)CC1`, the “re-replication activation” value was inactive: 27.3%.
For `COC(=O)c1c(NC(=O)c2ccco2)sc2c1CC(C)(C)NC2(C)C`, the Potency was inconclusive: 29.1 µM [activator, single point].
In the case of `Cc1ccc(/C=N/NC(=O)c2csc(C)c2)o1`, the “re-replication activation” value was inactive: -19.5%.
In the case of `NS(=O)(=O)c1ccc(NC(=O)COC(=O)c2ccc([N+](=O)[O-])s2)cc1`, the Potency was active: 16.4 µM.
With `CCCCOc1ccc(C(=O)NNC(=S)NC(=O)CC)cc1` the Potency was inconclusive: 18.4 µM [activator, single point].
In the case of `FC(F)(F)c1nnc(-c2ccccc2)nc1Sc1ccccc1`, the Potency was inconclusive: 29.1 µM [activator, single point].
With `O=C(Nc1ccc(N2CCOCC2)cc1)c1ccc(COc2ccccc2)cc1` the “re-replication activation” value was inactive: 5.9%.
In the case of `Cc1cccn2c(=O)c3cc(C(=O)NCc4cccnc4)c(=N)n(C(C)C)c3nc12`, the Potency was inconclusive: 16.4 µM [activator, single point].
